Measurements taken from article PMC13216743.
No constants are given. Whether binding was seen depends on the method and setting. For some of these results: Binding seen in cells or lysates may run through a third protein. Some binding calls cover weakened binding; strength is not graded here. Where a sequence is shown, tags or fusion partners need not be part of it.

Experiments:
[1] = molecular target: T1, bacteriophage T4 alpha-glucosyltransferase, C-terminally histidine tagged (bacteriophage T4) (UniProt P04519); test: pull-down; filtered E. coli supernatant with tag-free gp45 mixed with supernatant with C-terminally His-tagged α-GT or β-GT, Ni-NTA agarose, overnight at 4°C; 25 mM Tris-Cl pH 7.5, 150 mM NaCl, 5% glycerol; washed with 20 mM imidazole, eluted with 250 mM imidazole; read by gel bands
T1 sequence: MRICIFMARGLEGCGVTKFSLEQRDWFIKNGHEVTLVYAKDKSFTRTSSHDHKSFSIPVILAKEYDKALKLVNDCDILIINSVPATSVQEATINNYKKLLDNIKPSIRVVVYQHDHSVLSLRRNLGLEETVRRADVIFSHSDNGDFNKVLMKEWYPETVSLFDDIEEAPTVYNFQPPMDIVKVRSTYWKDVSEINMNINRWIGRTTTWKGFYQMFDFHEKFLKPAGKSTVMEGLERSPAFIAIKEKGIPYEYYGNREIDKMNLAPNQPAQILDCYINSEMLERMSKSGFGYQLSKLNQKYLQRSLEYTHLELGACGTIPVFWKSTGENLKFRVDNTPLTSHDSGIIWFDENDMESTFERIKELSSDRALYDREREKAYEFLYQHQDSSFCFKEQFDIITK

[2] = molecular target: T2, bacteriophage T4 beta-glucosyltransferase, C-terminally histidine tagged (bacteriophage T4) (UniProt P04547); test: as above
T2 sequence: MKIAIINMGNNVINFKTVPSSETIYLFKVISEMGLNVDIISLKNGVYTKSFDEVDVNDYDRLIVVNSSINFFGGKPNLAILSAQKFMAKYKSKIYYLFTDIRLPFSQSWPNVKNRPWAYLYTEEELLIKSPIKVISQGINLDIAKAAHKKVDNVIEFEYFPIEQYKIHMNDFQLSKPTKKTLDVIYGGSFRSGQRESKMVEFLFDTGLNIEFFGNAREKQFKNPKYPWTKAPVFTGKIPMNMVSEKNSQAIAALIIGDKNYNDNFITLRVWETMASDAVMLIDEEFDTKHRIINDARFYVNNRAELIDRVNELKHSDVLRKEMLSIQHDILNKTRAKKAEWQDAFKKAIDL

[3] = molecular target: T1, bacteriophage T4 alpha-glucosyltransferase, C-terminally histidine tagged (bacteriophage T4); test: SEC; Superdex 200 Increase 10/300 GL, 25 mM Tris-Cl pH 7.5, 200 mM NaCl, 5% glycerol; oligomeric state estimated from the elution volume; both purified
[4] = molecular target: T2, bacteriophage T4 beta-glucosyltransferase, C-terminally histidine tagged (bacteriophage T4); test: as above

B1: bacteriophage T4 gp45, sliding clamp protein, tag-free (protein, UniProt P04525 1-228)
chain: MKLSKDTTALLKNFATINSGIMLKSGQFIMTRAVNGTTYAEANISDVIDFDVAIYDLNGFLGILSLVNDDAEISQSEDGNIKIADARSTIFWPAADPSTVVAPNKPIPFPVASAVTEIKAEDLQQLLRVSRGLQIDTIAITVKEGKIVINGFNKVEDSALTRVKYSLTLGDYDGENTFNFIINMANMKMQPGNYKLLLWAKGKQGAAKFEGEHANYVVALEADSTHDF
For B1, which binding [1] is on record?
Its binding is “binds”.

And the binding [2]?
Its binding is “no binding”.

B2: bacteriophage T4 alpha-glucosyltransferase, C-terminally histidine tagged (enzyme, UniProt P04519 1-400)
chain: T1 sequence
For B2, which binding [3] is on record?
The binding was “no binding”.

B3: bacteriophage T4 beta-glucosyltransferase, C-terminally histidine tagged (enzyme, UniProt P04547 1-351)
chain: T2 sequence
Which binding [4] does the source give for B3 here?
The binding was “no binding”.
